Laboratory results taken from publication PMC12624140, “A conserved chronobiological complex times C. elegans development” (The EMBO Journal, 2025).
Results are given in words; binding and its absence hold for the method and conditions named. Binding seen in cells or lysates may run through a third protein. These calls come from enrichment with a bait or labelling near it, and not all partners need be listed. For some assays here: A no says only that the protein was not detected with the bait. Where a sequence is shown, tags or fusion partners need not be part of it.

Experiments:
[1] = biological target: T1, 3xFLAG::LIN-42 (endogenously tagged, lin-42(xe321[3xflag::lin-42])) (C. elegans (endogenous in animals)) (UniProt Q65ZG8); assay: affinity purification with mass spectrometry; anti-FLAG M2 magnetic beads, 2 h at 4 °C, cleared extracts of mixed-stage 3xflag::lin-42 animals in 50 mM Tris-HCl pH 7.5, 150 mM NaCl, 1% Triton X-100, 1 mM EDTA; control strain sart-3::gfp::3xflag; label-free quantification
T1 sequence: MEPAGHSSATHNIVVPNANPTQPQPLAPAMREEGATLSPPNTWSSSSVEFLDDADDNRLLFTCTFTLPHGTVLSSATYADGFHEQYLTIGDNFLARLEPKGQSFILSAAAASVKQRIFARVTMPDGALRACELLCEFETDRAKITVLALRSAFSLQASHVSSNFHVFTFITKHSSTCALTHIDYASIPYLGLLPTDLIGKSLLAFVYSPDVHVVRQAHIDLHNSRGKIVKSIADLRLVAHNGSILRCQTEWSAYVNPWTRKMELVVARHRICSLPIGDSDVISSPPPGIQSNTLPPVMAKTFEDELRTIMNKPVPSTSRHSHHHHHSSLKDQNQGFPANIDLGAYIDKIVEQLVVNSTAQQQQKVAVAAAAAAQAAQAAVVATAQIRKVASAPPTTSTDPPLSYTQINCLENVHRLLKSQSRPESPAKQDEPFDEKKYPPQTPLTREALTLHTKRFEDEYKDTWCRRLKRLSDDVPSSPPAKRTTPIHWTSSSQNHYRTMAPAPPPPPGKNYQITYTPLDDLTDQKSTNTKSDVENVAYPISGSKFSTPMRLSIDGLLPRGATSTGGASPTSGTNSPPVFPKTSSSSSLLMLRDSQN

[2] = biological target: T2, 3xFLAG::LIN-42 (endogenously tagged, lin-42(xe321[3xflag::lin-42])) (C. elegans (endogenous in animals)), Q65ZG8; assay: as above; conditions: remark: other sources report otherwise
T2 chain: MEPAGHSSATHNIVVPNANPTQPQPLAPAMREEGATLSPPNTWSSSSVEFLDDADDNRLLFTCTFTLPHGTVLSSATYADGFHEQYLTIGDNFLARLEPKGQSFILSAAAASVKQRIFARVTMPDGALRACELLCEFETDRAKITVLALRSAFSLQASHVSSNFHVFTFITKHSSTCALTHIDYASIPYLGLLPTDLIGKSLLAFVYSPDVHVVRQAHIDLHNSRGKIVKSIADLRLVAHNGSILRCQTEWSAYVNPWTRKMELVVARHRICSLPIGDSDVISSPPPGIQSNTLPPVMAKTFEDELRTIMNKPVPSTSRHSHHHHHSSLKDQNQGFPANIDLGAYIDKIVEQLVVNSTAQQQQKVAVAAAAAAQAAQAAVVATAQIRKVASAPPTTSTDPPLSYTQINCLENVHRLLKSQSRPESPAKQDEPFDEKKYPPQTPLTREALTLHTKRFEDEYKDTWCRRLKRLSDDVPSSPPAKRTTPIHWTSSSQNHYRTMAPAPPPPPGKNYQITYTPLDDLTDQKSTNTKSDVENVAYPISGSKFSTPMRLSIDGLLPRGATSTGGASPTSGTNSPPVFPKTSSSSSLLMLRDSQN

B1: KIN-20 (endogenous, untagged) (enzyme, UniProt Q20471-1 1-479)
chain: MATMSNDAAAAATWHNNTSTPMDTTEPATNSHNPGETAVIGGPEALLLPSGSGPEEMNRHPLLMAQAHGEHHQPRLLHNFPVIPPPIQQHQQPPLLQQAQPSQIPHPTQPQIDPTMFTQQSGFNWPPIDPNTIAALAQAQLASSHAQFVSLALTLDPTLLSHFLATQQIPPVPQPLVHKKAEMELRVGNRFRLGRKIGSGSFGDIYLGQNIQTNEEVAVKLECVKSKHPQLHIESRLYRIMLGGIGIPEIRWCGQEGDYNVMVMELLGPSLEDLFNFCQRKFSLKTVLLLADQMLSRVEFIHCRDYIHRDIKPDNFLMGLGKRGNLVYIIDFGLAKRYRDSKHQHIAYRENKNLTGTARYASINTHRGIEQSRRDDIESLGYVFMYFNRGTLPWQGLKAVTKRQKYELISEKKISTRVDDLCAGYPEAFAQYLNYCRSLGFEEQPDYGYLRNLFRTLFHRQQFCYDYVFDWNTYKFRRN
- binding [1]: binds

B2: NHR-85, Q9XUK7 1-514 (protein)
chain: MDLSTSGSLPCHLPLSLLTNLQTPPIDTSFSSPPATSSSSLLSPSPSSAFRPVVPKSLMNPQPAMDTFYMSAIQSLVVSTTNDDQYSEHGALEGSKSLAKDENASTSAGTILCQVCSDKASGFHYGVFACEGCKGFFRRSIQQKITYRACTRAEDCLILRNNRNRCQCCRLKKCLAVGMSRDAVRFGRVPKREKARMFEEMQKTNVQSQRDQIAIQYENLTEVMHKINQAFGTLQATLEKCTGPIYTDRCPITSNFIVIPLKAAIDFANSIPAFLSITQTQRVHLLQNSVFDVMLLASASASTSQHFPPGGLTYDQSSANPIIPQAIQSISARIRQLPPQTVPILTAIAVCQADLLPESQQPMLLAERLWCVLGKLGGIQSLATAPSLLADVRTLRQWHSDRLRQMSQISQHFSQNLLIAPVAAAAPVLLPPAFLSPPASATSTSSSSVKSEFIERHPSIASLLERPRRISSSGAQEPLNLSLPHVRHQVKRDVDSDEQLEEMKVSPVPTTLSE
- binding [2]: no binding
